Data published in PubChem BioAssay AID504467 (National Center for Advancing Translational Sciences (NCATS), 2011).
Out of some 330,000 compounds screened, about 7,700 (2.3%) were called active. The shares of active, inactive and inconclusive entries below differ from those in the screen. The call rests on the fitted dose curve; in most records, active means well fitted inhibition curve with a large enough effect; inconclusive means small, poorly fitted or top-dose-only effect, or effect the other way; inactive means flat fitted curve, though single readings scatter. Potencies beside an inconclusive call are fits to weak or partial responses and may not hold up.

Test: qHTS screen for small molecules that inhibit ELG1-dependent DNA repair in human embryonic kidney (HEK293T) cells expressing luciferase-tagged ELG1; further: nearly all actives have a fitted effect of over 55% in size
Details: HEK293T ELG1-luciferase reporter, luminescence, 16 h, DNA damage induced by 5-fluorouridine; series mostly up to 46.1 µM
In short: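 Reporter activity after DNA damage by 5-fluorouridine is monitored. Compound-treated cells incubate 16 hr at 37 °C, then ONE-Glo is added for 30 min before luminescence reading.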
Potency means the concentration at half of the fitted maximal effect.

Row | SMILES | Potency
1 | COc1cccc(NS(=O)(=O)c2cc3c4c(c2)CCC(=O)N4CCC3)c1 | inactive
2 | COc1ccc(C(=O)NC(=S)N(C)C2CCCCC2)cc1Br | inactive
3 | COc1cc2c(cc1OC)C(COc1ccc([N+](=O)[O-])cc1)N(C(C)=O)CC2 (stereo not given) | active: 8.2 µM
4 | CCc1c(C#N)c(SCc2c(C)noc2C)nc2c1C(=O)CC(C)(C)C2 | inconclusive: 20.6 µM [inhibitor, single point]
5 | O=C(CSc1ncccn1)NCc1ccc(F)cc1 | inconclusive: 20.6 µM [activator, partial curve]
6 | COCCNC(=O)c1ccc2c3n(nc2c1)-c1ccccc1CO3 | inconclusive: 4.11 µM [activator, partial curve]
7 | Cc1ccc2[nH]c3c(c2c1)CN(C(=O)CN1CCN(c2ccccc2)CC1)CC3 | inconclusive: 20.6 µM [inhibitor, partial curve, poor fit]
8 | COc1cc(CNn2cn[nH]c2=S)cc(Cl)c1OCc1ccc(F)cc1 | inactive
9 | CC(C)C(=O)Nc1nnc(S(=O)(=O)N(C)c2ccc(Cl)cc2)s1 | inactive
10 | O=C(CCn1c(=O)sc2ccccc21)Nc1nccs1 | inconclusive: 20.6 µM [activator, partial curve]
11 | COc1ccc2nc(SCC(=O)N3CCNC3=O)[nH]c2c1 | inconclusive: 9.2 µM [activator, partial curve]
12 | CC(C)c1ccc(/C=C/C(=O)NC(=S)NN2CCOCC2)cc1 | inconclusive: 7.3 µM [activator, partial curve]
13 | S=C(NCCc1ccccc1)NCc1cccc(Cl)c1 | inactive
14 | O=C(CCC1CCCN(C(=O)C2=CCCCC2)C1)N1CCN(c2ccccn2)CC1 (stereo not given) | inconclusive: 23.1 µM [inhibitor, single point]
15 | O=C(O)CCn1cc(/C=C/C(=O)c2ccc(Cl)cc2)c(-c2ccc(Br)cc2)n1 | inconclusive: 23.1 µM [inhibitor, single point]
16 | COc1ccc(CNC(=O)c2cnc3cc(C)ccn3c2=O)cc1 | inconclusive: 29.1 µM [activator, single point]
17 | NC(=O)CSc1nnc(-c2ccccc2Br)n1-c1cccc(C(F)(F)F)c1 | inconclusive: 14.6 µM [activator, partial curve, poor fit]
18 | CCN(CC)C(=O)N1CCN(C(=O)c2ccc(C)cn2)CC1 | inconclusive: 32.6 µM [activator, partial curve, poor fit]
19 | CCCC/C(O)=C/c1nc2ccccc2[nH]c1=O | inconclusive: 0.731 µM [activator, full curve]
20 | COc1ccc(N2CC(NC(=O)N3CCN(C(=O)c4ccco4)CC3)CC2=O)cc1OC (stereo not given) | inconclusive: 29.1 µM [activator, single point]
21 | COc1cccc(CNC(=O)COC(=O)c2c(NC(C)=O)sc(C)c2C)c1 | inactive
22 | CCOc1ccc(-c2[nH]nc3c2C(c2cccnc2)C(C#N)=C(N)O3)cc1 (stereo not given) | inconclusive: 20.6 µM [activator, single point]
23 | COc1ccc2nc(NC(=O)c3cc(C)oc3C)sc2c1 | inconclusive: 4.11 µM [activator, full curve]
24 | COc1cccc(N2CCN(CC(=O)Nc3ccc(SC(F)F)cc3)CC2)c1 | inactive

Row | SMILES | Potency
25 | COc1ccc(CC(=O)Nc2nc(-c3ccncc3)cs2)cc1 | active: 18.3 µM
26 | COc1ccc(-c2noc(CN3CCN(c4ccccc4)CC3)n2)cc1 | inconclusive: 20.6 µM [inhibitor, single point]
27 | Cc1ccsc1C(=O)NN=C1CCCCCC1 | inconclusive: 29.1 µM [activator, single point]
28 | O=C(NNC(=O)c1ccccc1Cl)c1csc(N2CCOCC2)n1 | inconclusive: 18.3 µM [activator, partial curve, poor fit]
29 | Cc1ccccc1-n1nnnc1SCC(=O)NC1CC1 | inconclusive: 29.1 µM [activator, single point]
30 | Cc1ccc(C2=NN3C(C2)c2ccccc2OC32C(=O)Nc3ccccc32)cc1 (stereo not given) | inconclusive: 10.3 µM [activator, partial curve, poor fit]
31 | COc1ccc(Nc2cc(C)nc3nc(C)nn23)cc1Cl | inconclusive: 2.91 µM [activator, partial curve, poor fit]
32 | COc1cc2[nH]c3c(Cl)ncnc3c2cc1OC | inactive
33 | COc1ccc(C(=O)Nn2c(SCC(=O)c3ccc(Cl)cc3)nc3ccccc3c2=O)cc1 | inconclusive: 0.461 µM [activator, full curve]
34 | CCOC(=O)c1ccc(-n2c(CN3CCC(C(N)=O)CC3)nc3ccc([N+](=O)[O-])cc3c2=O)cc1 | inactive
35 | CCOC(=O)c1sc(NC(=O)CCN2CCN(C)CC2)c(C(=O)OCC)c1C | inconclusive: 25.9 µM [inhibitor, single point]
36 | COCCNC(=O)/C(C#N)=C/c1ccccc1Br | inconclusive: 29.1 µM [activator, single point]
37 | O=C(CN(C(=O)c1csnn1)c1ccc(Br)cc1)NC1CCCCC1 | inconclusive: 29.1 µM [activator, partial curve, poor fit]
38 | CCN(C(=O)COC(=O)CN(C)S(=O)(=O)c1ccc(NC(C)=O)cc1)C1CCS(=O)(=O)C1 (stereo not given) | inactive
39 | O=C(O)Cc1ccc(NC(=O)c2ccc3c(c2)C(=O)N(Cc2ccco2)C3=O)cc1 | inconclusive: 29.1 µM [inhibitor, single point]
40 | COc1ccccc1C(=O)N1CCN(C(=O)c2oc3ccc(C)cc3c2C)CC1 | inconclusive: 14.6 µM [inhibitor, partial curve, poor fit]
41 | O=C(CSc1ccsc1[N+](=O)[O-])N1CCN(c2ccccn2)CC1 | inactive
42 | O=C(NNC(=O)c1cccc(Cl)c1)NNC(=O)c1cccc(Cl)c1 | inactive
43 | COc1ccc2c(c1)c(=O)oc1c(C)c(OCc3ccc(C(=O)O)cc3)ccc12 | inactive
44 | FC(F)(F)c1cccc(NC(=S)Nc2ccc(Cl)c(Cl)c2)c1 | inconclusive: 29.1 µM [inhibitor, single point]
45 | CCNS(=O)(=O)c1ccc(NC(=O)Nc2ccccc2OC)cc1 | inconclusive: 16.4 µM [activator, single point]
46 | O=C(Nc1ccc(Br)cc1C(=O)O)c1ccc2c(c1)C(=O)N(Cc1ccccc1)C2=O | inactive
47 | O=c1c2c(nc3nc(SCc4ccccc4)[nH]n13)CCC2 | inactive
48 | O=C1COc2ccc(C(=O)COC(=O)c3cccnc3Cl)cc2N1 | inactive

Row | SMILES | Potency
49 | COc1ccc(C(=O)N2CCN(Cc3ccc4c(c3)OCO4)CC2)cc1[N+](=O)[O-] | inconclusive: 3.26 µM [inhibitor, partial curve]
50 | Cc1cccc(OCC(=O)Nc2ccc(N3CCN(C(=O)c4ccccc4)CC3)cc2)c1 | active: 18.4 µM
51 | CCCCc1ccc(/C=C2/C(=O)ON=C2c2ccccc2)s1 | inactive
52 | COCCCNc1nc2c(c(=O)n(Cc3ccc(OC)cc3)c(=O)n2C)n1C | inconclusive: 25.9 µM [inhibitor, single point]
53 | COCCn1cnnc1SCC(=O)Nc1ccc(Br)cc1F | inactive
54 | CCOC(=O)c1ccc(NC(=O)c2nc[nH]c2C(=O)NC)cc1 | inconclusive: 20.6 µM [activator, partial curve, poor fit]
55 | CCCc1cc(C(=O)Nc2ccc(C#N)cc2)no1 | inconclusive: 20.6 µM [activator, partial curve, poor fit]
56 | COc1cc(/C=N/NC(=O)c2ccc(CSc3nc4ccccc4[nH]3)cc2)ccc1O | inconclusive: 18.3 µM [inhibitor, partial curve, poor fit]
57 | CC1CN(S(=O)(=O)c2cccs2)CC(C)O1 (stereo not given) | inconclusive: 0.259 µM [activator, single point]
58 | Cc1cc(C)cc(N(CC(=O)NC2CCCCC2)C(=O)CCCC(=O)Nc2ccccn2)c1 | inactive
59 | O=c1c(Br)c(N2CCCC2)cnn1-c1ccccc1 | inconclusive: 8.2 µM [activator, partial curve]
60 | Cc1ccc(/C=N/NC(=O)c2nnn(-c3nonc3N)c2-c2cccs2)cc1 | inactive
61 | COc1ccc(-c2cc(C)no2)cc1S(=O)(=O)N1CCCN(Cc2ccccc2Cl)C1 | inactive
62 | COc1ccc(N2CCN(C(=O)CCCCCn3c(=O)[nH]c4ccsc4c3=O)CC2)cc1 | inconclusive: 32.6 µM [inhibitor, single point]
63 | CCc1ccc(N2CC(C(=O)NCc3ccco3)CC2=O)cc1 (stereo not given) | inconclusive: 32.6 µM [activator, partial curve, poor fit]
64 | COCCn1c(SCc2nc3ccccc3s2)nc2ccccc21 | inconclusive: 11.2 µM [activator, partial curve]
65 | Cc1onc(-c2ccccc2)c1C(=O)OCC(=O)Nc1cccc(Cl)c1 | active: 13 µM
66 | CC1CCN(c2nc3ccc(C(=O)N4CCN(Cc5ccccc5)CC4)cc3s2)CC1 | inconclusive: 2.31 µM [activator, partial curve]
67 | COc1ccc2c(c1)C1=NN(/C(C)=C\C(C)=O)C(c3ccccc3)C1CC2 (stereo not given) | inconclusive: 20.6 µM [activator, single point]
68 | COc1ccccc1C(=O)N(C)c1nnc(-c2ccccc2)s1 | inconclusive: 2.59 µM [activator, partial curve]
69 | Cc1cc2cc(CNS(=O)(=O)c3ccccc3)ccc2n1C | inconclusive: 29.1 µM [inhibitor, single point]
70 | Cc1cc(N2CCN(c3ccc([N+](=O)[O-])c4cccnc34)CC2)c2ccccc2n1 | inconclusive: 0.651 µM [inhibitor, partial curve]

Among those listed so far, 10 contain an NH in an aromatic ring.
Row | SMILES | Potency
7 | Cc1ccc2[nH]c3c(c2c1)CN(C(=O)CN1CCN(c2ccccc2)CC1)CC3 | inconclusive: 20.6 µM [inhibitor, partial curve, poor fit]
8 | COc1cc(CNn2cn[nH]c2=S)cc(Cl)c1OCc1ccc(F)cc1 | inactive
11 | COc1ccc2nc(SCC(=O)N3CCNC3=O)[nH]c2c1 | inconclusive: 9.2 µM [activator, partial curve]
19 | CCCC/C(O)=C/c1nc2ccccc2[nH]c1=O | inconclusive: 0.731 µM [activator, full curve]
22 | CCOc1ccc(-c2[nH]nc3c2C(c2cccnc2)C(C#N)=C(N)O3)cc1 (stereo not given) | inconclusive: 20.6 µM [activator, single point]
32 | COc1cc2[nH]c3c(Cl)ncnc3c2cc1OC | inactive
47 | O=c1c2c(nc3nc(SCc4ccccc4)[nH]n13)CCC2 | inactive
54 | CCOC(=O)c1ccc(NC(=O)c2nc[nH]c2C(=O)NC)cc1 | inconclusive: 20.6 µM [activator, partial curve, poor fit]
56 | COc1cc(/C=N/NC(=O)c2ccc(CSc3nc4ccccc4[nH]3)cc2)ccc1O | inconclusive: 18.3 µM [inhibitor, partial curve, poor fit]
62 | COc1ccc(N2CCN(C(=O)CCCCCn3c(=O)[nH]c4ccsc4c3=O)CC2)cc1 | inconclusive: 32.6 µM [inhibitor, single point]

Two entries from above, in CSV form:
Row,SMILES,Potency
68,COc1ccccc1C(=O)N(C)c1nnc(-c2ccccc2)s1,"inconclusive: 2.59 µM [activator, partial curve]"
69,Cc1cc2cc(CNS(=O)(=O)c3ccccc3)ccc2n1C,"inconclusive: 29.1 µM [inhibitor, single point]"
